Here are results for eleven molecules from PubChem BioAssay AID194 (DTP/NCI, 2004).

The list does not hold the whole screen: it is rich in T/C values a quarter to a half above the control, in often repeated tests (any T/C) and in doses without a T/C. Other doses and runs of a compound stand elsewhere. T/C: endpoint of the treated group in % of that of the vehicle group. Schedule codes are those of the source, taken here to give the interval after Q, in days (D) or hours (H), and the number of doses after X. Some entries were tested several times; the values are given in rising order. Some entries give survivors of the animals treated and no T/C: the source holds a T/C of zero for them, seemingly a mark for toxic or unscored doses. Some survivor counts are full or nearly so, which does not show that the dose was tolerated: the source hardly ever lists a survival T/C far under the control, and the zero likely stands for such cases as well. Survivors were counted at the toxicity check, usually on the fifth day, unless a day is given; later deaths do not show. Where survival is the endpoint, the PubChem record calls one and a half times the control and up active, and a quarter to a half above the control has no call in these data; cut-offs in other NCI protocols can differ. Some T/C values are followed by the survivors on the day toxicity was checked, most often the fifth; where none is given, no animal had died by that day. Signs of the kind (2×) give the number of equal values in this list.

This assay has as its system BDF1 mice, B16 melanoma s.c., survival/tumor T/C. As to the kind of experiment: NCI In Vivo Anticancer Drug Screen. Data for tumor model B16 Melanoma (subcutaneous) in B6D2F1 (BDF1) mice. The protocol: The antitumor activity of compounds was measured in mice bearing transplantable tumors. Survival or tumor size were measured and the results are expressed as the measurement made in the treated group (T) divided by the measurement made in the vehicle treated control group (C). The tumor model used in this assay is B16 Melanoma (subcutaneous) in B6D2F1 (BDF1) mice

Where [1] appears, read: T/C endpoint: median survival time, dose: 50.0 mg/kg/injection, schedule: Q01DX009 (ip), vehicle: saline, higher T/C = longer survival.
The mark [2] stands for this setting: T/C endpoint: median survival time, dose: 100.0 mg/kg/injection, schedule: Q01DX009 (ip), vehicle: saline, higher T/C = longer survival.
The mark [3] stands for this setting: T/C endpoint: median survival time, dose: 0.5 mg/kg/injection, schedule: Q01DX009 (ip), vehicle: saline with Tween-80, higher T/C = longer survival.
[4] abbreviates: T/C endpoint: median survival time, dose: 2.0 mg/kg/injection, schedule: Q01DX009 (ip), vehicle: saline with Tween-80, higher T/C = longer survival.
[5] abbreviates: T/C endpoint: median survival time, dose: 8.0 mg/kg/injection, schedule: Q01DX009 (ip), vehicle: saline with Tween-80, higher T/C = longer survival.
[6] abbreviates: T/C endpoint: median survival time, dose: 64.0 mg/kg/injection, schedule: Q01DX009 (ip), vehicle: saline, higher T/C = longer survival.

As for `O=P1(N(CCCl)CCCl)NCCCO1` (stereo unspecified), the T/C was 160 % of control (T/C endpoint: median survival time, dose: 25.0 mg/kg/injection, schedule: Q01DX009 (ip), vehicle: saline, evaluated on day 29, higher T/C = longer survival); 118 % of control (T/C endpoint: median survival time, dose: 25.0 mg/kg/injection, schedule: Q01DX009 (ip), vehicle: saline, evaluated on day 59, higher T/C = longer survival); 111, 115, 115 [5 of 6 alive], 130, 134, 135, 139, 152, 153, 155, 158 % of control (T/C endpoint: median survival time, dose: 25.0 mg/kg/injection, schedule: Q01DX009 (ip), vehicle: saline, evaluated on day 60, higher T/C = longer survival); 190 % of control (T/C endpoint: median survival time, dose: 50.0 mg/kg/injection, schedule: Q01DX009 (ip), vehicle: saline, evaluated on day 59, higher T/C = longer survival); 98, 105, 117, 118, 121, 126 (2×), 137 [5 of 6 alive], 145, 156 % of control (T/C endpoint: median survival time, dose: 50.0 mg/kg/injection, schedule: Q01DX009 (ip), vehicle: saline, evaluated on day 60, higher T/C = longer survival); 103, 112, 117 (3×), 125, 136 % of control (T/C endpoint: median survival time, dose: 75.0 mg/kg/injection, schedule: Q01DX001 (ip), vehicle: saline, higher T/C = longer survival). The T/C reads like this: under setting [2], 88, 91, 107 (2×), 121, 128, 157 % of control; (T/C endpoint: median survival time, dose: 150.0 mg/kg/injection, schedule: Q01DX001 (ip), vehicle: saline, higher T/C = longer survival) 128, 130, 139, 141, 150, 152, 180 % of control; (T/C endpoint: median survival time, dose: 300.0 mg/kg/injection, schedule: Q01DX001 (ip), vehicle: saline, evaluated on day 51, higher T/C = longer survival) 192 % of control; (T/C endpoint: median survival time, dose: 300.0 mg/kg/injection, schedule: Q01DX001 (ip), vehicle: saline, evaluated on day 60, higher T/C = longer survival) 136 [4 of 6 alive], 152, 153, 161, 167, 173, 176 % of control; (T/C endpoint: median tumor weight (est.), dose: 75.0 mg/kg/injection, schedule: Q01DX001 (ip), vehicle: saline, evaluated on day 14, higher T/C = larger tumour) 35 and 56 % of control; (T/C endpoint: median tumor weight (est.), dose: 75.0 mg/kg/injection, schedule: Q01DX001 (ip), vehicle: saline, evaluated on day 15, higher T/C = larger tumour) 72 and 93 % of control. Besides, the T/C (T/C endpoint: median tumor weight (est.), dose: 75.0 mg/kg/injection, schedule: Q01DX001 (ip), vehicle: saline, evaluated on day 18, higher T/C = larger tumour) was 54 % of control. Also, the survivor count reads like this: under setting [1], 5 of 8 on day 29; under setting [2], 0 of 8 on day 29, 1 of 10 on day 59, 5 of 5, 6 of 6; (T/C endpoint: median survival time, dose: 240.0 mg/kg/injection, schedule: Q04DX003 (ip), vehicle: saline, higher T/C = longer survival) 10 of 10.

Turning to `O=C1c2c(O)ccc(O)c2C(=O)c2c(NCCNCCO)ccc(NCCNCCO)c21`, the T/C is, setting by setting: under setting [3], 128 and 139 % of control; under setting [4], 133 % of control. Further, the survivor count reads like this: (T/C endpoint: median survival time, dose: 4.0 mg/kg/injection, schedule: Q01DX009 (ip), vehicle: other, higher T/C = longer survival) 10 of 10; (T/C endpoint: median survival time, dose: 8.0 mg/kg/injection, schedule: Q01DX009 (ip), vehicle: other, higher T/C = longer survival) 10 of 10.

As for `Cc1ncc([N+](=O)[O-])n1CCO`, the survivor count (T/C endpoint: median survival time, dose: 600.0 mg/kg/injection, schedule: Q01DX009 (ip), vehicle: Klucel (hydroxypropylcellulose) (HPC), higher T/C = longer survival) is given as 10 of 10.

In the case of `O=C1OC(C(O)CO)C(O)=C1O` (stereo unspecified), the survivor count (T/C endpoint: median survival time, dose: 1600.0 mg/kg/injection, schedule: Q01DX009 (ip), vehicle: saline, higher T/C = longer survival) was 4 of 10.

On to `COc1cccc2c1C(=O)c1c(O)c3c(c(O)c1C2=O)C[C@@](O)(C(=O)COC(=O)Cc1cccc2ccccc12)C[C@@H]3OC1CC(N)C(O)C(C)O1` (stereo partly specified), for which, under setting [3], the T/C was 142 % of control. Moreover, the survivor count under setting [5] was 10 of 10 and the survivor count (T/C endpoint: median survival time, dose: 16.0 mg/kg/injection, schedule: Q01DX009 (ip), vehicle: saline with Tween-80, higher T/C = longer survival) is given as 10 of 10.

On to `C[CH2][Ge]1([CH2]C)[CH2]CC2(CCN(CCCN(C)C)C2)C[CH2]1`, for which the survivor count by setting is: (T/C endpoint: median survival time, dose: 64.0 mg/kg/injection, schedule: Q02DX009 (ip), vehicle: saline, higher T/C = longer survival) 10 of 10; (T/C endpoint: median survival time, dose: 128.0 mg/kg/injection, schedule: Q02DX009 (ip), vehicle: saline, higher T/C = longer survival) 1 of 10.

Turning to `Cn1c(CCCC(=O)O)nc2cc(N(CCCl)CCCl)ccc21`, the survivor count (T/C endpoint: median survival time, dose: 20.0 mg/kg/injection, schedule: Q01DX009 (ip), vehicle: saline, higher T/C = longer survival) was 10 of 10.

With `CCN(CC)CCCC(C)Nc1c2ccc(Cl)cc2nc2ccc(OC)cc12` (stereo unspecified), the T/C under setting [5] is 139 % of control. Further, the survivor count was 8 of 10 (T/C endpoint: median survival time, dose: 128.0 mg/kg/injection, schedule: Q01DX009 (ip), vehicle: saline with Tween-80, higher T/C = longer survival); 9 of 10 (T/C endpoint: median survival time, dose: 128.0 mg/kg/injection, schedule: Q01DX009 (ip), vehicle: saline, higher T/C = longer survival); 0 of 10 and 2 of 10 (T/C endpoint: median survival time, dose: 256.0 mg/kg/injection, schedule: Q01DX009 (ip), vehicle: saline with Tween-80, higher T/C = longer survival); 1 of 10 (T/C endpoint: median survival time, dose: 256.0 mg/kg/injection, schedule: Q01DX009 (ip), vehicle: saline, higher T/C = longer survival); 1 of 10 (T/C endpoint: median survival time, dose: 256.0 mg/kg/injection, schedule: Q01DX009 (ip), vehicle: suspension in saline, higher T/C = longer survival).

For the molecule `CCCCCCCC(=O)OCC(=O)[C@]1(O)Cc2c(O)c3c(c(O)c2[C@@H](OC2CC(N)C(O)C(C)O2)C1)C(=O)c1c(OC)cccc1C3=O` (stereo partly specified), the T/C (T/C endpoint: median survival time, dose: 0.25 mg/kg/injection, schedule: Q01DX009 (ip), vehicle: saline with Tween-80, higher T/C = longer survival) was 126 % of control. The survivor count is 10 of 10 under setting [4]; 10 of 10 (T/C endpoint: median survival time, dose: 4.0 mg/kg/injection, schedule: Q01DX009 (ip), vehicle: saline with Tween-80, higher T/C = longer survival); 10 of 10 under setting [5].

As for `CC1(C)N=C(N)N=C(N)N1c1ccc(CCC(=O)Nc2ccc(S(=O)(=O)F)cc2)c(Cl)c1`, the T/C under setting [1] is 129 % of control.

For the molecule `Nc1nc([Se])c2ncn(C3OC(CO)C(O)C3O)c2n1` (stereo unspecified), the T/C (T/C endpoint: median survival time, dose: 1.0 mg/kg/injection, schedule: Q01DX009 (ip), vehicle: saline, higher T/C = longer survival) was 148 % of control; the T/C (T/C endpoint: median survival time, dose: 4.0 mg/kg/injection, schedule: Q01DX009 (ip), vehicle: saline, higher T/C = longer survival) was 128 % of control; the T/C (T/C endpoint: median survival time, dose: 8.0 mg/kg/injection, schedule: Q01DX009 (ip), vehicle: saline, higher T/C = longer survival) was 141 % of control; the T/C (T/C endpoint: median survival time, dose: 16.0 mg/kg/injection, schedule: Q01DX009 (ip), vehicle: saline, higher T/C = longer survival) is 130 % of control; the T/C (T/C endpoint: median survival time, dose: 32.0 mg/kg/injection, schedule: Q01DX009 (ip), vehicle: saline, higher T/C = longer survival) is 128 [9 of 10 alive] and 131 % of control; the T/C under setting [6] was 132 % of control [8 of 10 alive]. The survivor count under setting [6] was 8 of 10.
